Results taken from PubChem BioAssay AID1347426 (Functional Genomics Laboratory (NCATS/FGL), 2020).
Screen size: about 31,000 sequences; about 1,400 (4.5%) were called active.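 Rule for the calls: active = median seed-adjusted z-score above 1 or below -1; inactive = the rest.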 The list shows a part of the results.

Assay: Novel Modifiers of Survival Motor Neuron (SMN) Protein: Gene Identification via Genome-wide siRNA Screen;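 note: luminescence tracks full-length SMN protein made from the SMN2 reporter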
Details: HEK293T SMN2-luciferase reporter, siRNA knockdown, 72 h; actives lie on both sides
Summary of the method: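 Each of three siRNAs per gene is reverse-transfected (1 pmol) into reporter HEK293T cells whose luciferase output tracks SMN protein level. After 72 h culture, ONE-Glo luminescence is control-normalized, log10-transformed and MAD-standardized; Common Seed Analysis deprioritizes seed-driven hits.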

Row | Sequence | median seed-adjusted z-score
1 | CAACAUCUCAGAUAGUUUUTT against XRCC6BP1 | inactive: 0.128
2 | GGAGAAUUCUGAGCACAGATT against PPYR1 | inactive: 0.589
3 | GGACUUUAUUCAUAUGAUUTT against HNMT | inactive: 0.336
4 | GGGUUACAGUAACUGCAAUTT against GABRR1 | inactive: 0.286
5 | GAGACUGACUACAAGAACATT against STK38 | inactive: -0.961
6 | GCAAAUACCUGAGAAGCGATT against BCMO1 | inactive: 0.53
7 | CAUGCAGCCUUAAGCCUCATT against ILKAP | inactive: 0
8 | CGGCCGAUGUAUGUACUGATT against CPA4 | inactive: -0.182
9 | GCCUCGCAGAUCAACCUCATT against ABCD1 | inactive: 0
10 | GACACGUUCUUUCUCAUCATT against CLCA4 | inactive: 0.186
11 | CUAAGAGAAUAUACGCUUATT against NRD1 | inactive: 0.0825
12 | GCACUGUUCUGGGACUCCATT against MPZ | inactive: 0.337
13 | GCACCUAUGUCACCUGGAUTT against AVPR2 | inactive: -0.262
14 | ACCUCUUACCCAACACCAATT against CLDN1 | inactive: 0.307
15 | GGCGAUCUAGUGUAUGUUATT against FOLH1 | inactive: 0.148
16 | GACCCGUACUUCAUGAAGATT against SF3A2 | active: -1.7
17 | GCCUUUUCCAAGUUUGUAUTT against VN1R4 | inactive: -0.0601
18 | GUGUCUCCCUAAACUCAAUTT against ZMAT4 | inactive: -0.0468
19 | CGAACAAAACGGGCCUGGATT against FOXA2 | inactive: 0.883
20 | GACUCGUUGUUGGUCUAAATT against MAP3K7 | inactive: -0.23
21 | GCAGUCAGUUCACCAGGAATT against PDCL | inactive: -0.802
22 | CUUCCAAUGUUAAUGGACATT against VHLL | inactive: -0.0852

Row | Sequence | median seed-adjusted z-score
23 | ACAUCUCACGGAUCCUUAATT against PAX4 | inactive: 0.0811
24 | GGAGUUUGCGCUGGUCAAATT against NDN | inactive: -0.146
25 | GCCCAGAAGUUUAGGGAAATT against TAP1 | inactive: -0.506
26 | CUCCUAAUCUUGUUCGAUATT against NDUFS1 | inactive: -0.217
27 | CCAGUGAUAUUAGAUCGGUTT against USP42 | inactive: -0.0125
28 | GGUUGCGGCUCAGAACAAATT against OAS3 | inactive: 0.147
29 | GUUUCGAAAUUUACAACAATT against NUP160 | inactive: -0.261
30 | CGAUAUAAAGUCGGAAGAATT against DCLK1 | inactive: 0.193
31 | GCACCUAAAUCAUAAUCCATT against HSF5 | inactive: 0.369
32 | GCAACUUCGUGAGAUUACATT against COLEC12 | active: -1.04
33 | GCAACGGUGCUUUCCCAGATT against CASKIN1 | inactive: 0.555
34 | GAAGCUUGCCUUGAAAUAUTT against DNAJC5 | inactive: -0.0844
35 | GGAAGUCCUUUUAUUACCATT against DTNA | inactive: 0
36 | ACAACAGACCAGAGAAUGATT against SRF | inactive: -0.393
37 | GGAGCCUACCCAAAACCCATT against LILRB2 | inactive: -0.911
38 | GGAUCACAGUUACAAGGCUTT against L3MBTL2 | inactive: -0.312
39 | CCAGGUAGACUUAAUGAAATT against ZNF202 | inactive: 0.534
40 | CCUACUACCUCAAACACCATT against SYVN1 | active: -1.41
41 | CAGCGGUACUUCUUCCAGATT against ADCY6 | inactive: -0.0652
42 | CAACAUUCAUGGACGGGAATT against SLC2A7 | inactive: -0.0337
43 | GGGUGGAUCAUUCACAGAATT against NAT13 | inactive: 0
44 | GAAUCACCAUGAAUGUAAUTT against ZNF558 | inactive: -0.393

Quoted from the listing.
GGAGUUUGCGCUGGUCAAATT against NDN – median seed-adjusted z-score: inactive: -0.146
GAAGCUUGCCUUGAAAUAUTT against DNAJC5 – median seed-adjusted z-score: inactive: -0.0844
GCAACUUCGUGAGAUUACATT against COLEC12 – median seed-adjusted z-score: active: -1.04

(cont.)

Row | Sequence | median seed-adjusted z-score
45 | GGCACAUCCUGCAAGCUCATT against ADAMTSL2 | inactive: 0.806
46 | GGAGCAUGGUGGUAUAAGATT against TNR | inactive: 0.498
47 | GCCUUAGGGACAACAGUGATT against GTF2IRD2 | inactive: 0.904
48 | GCCCAGUUGCUUAACGAAUTT against ACVR2A | inactive: -0.22
49 | CGGGUCGUAUUAUCACCAUTT against FOXF2 | inactive: -0.608
50 | CCGCAAUAAGAAUCGAUAUTT against PTPRT | inactive: -0.323
51 | GGUUGACCUCAGCUUCGGATT against ATP5D | inactive: 0
52 | ACACUAGUCCACCACCAAATT against TNP2 | inactive: -0.346
53 | GGACUUGAGUCUGAGUUCATT against PAOX | inactive: 0
54 | GGAAAACCUUUAGCUACAATT against ZNF551 | inactive: -0.171
55 | CCAAAUUUGUAAACGGUGUTT against SLC28A3 | inactive: -0.107
56 | GUUACAAACUGUUUACAUATT against RCBTB1 | inactive: 0
57 | GGAGAGAUUCGAGUAGGAATT against MTA1 | inactive: 0.407
58 | UCCAUAUUCUGAUCAACAATT against RDH12 | inactive: -0.0267
59 | GGAAAAUCUUCAGUAUGAATT against ZNF157 | inactive: 0.137
60 | CCAUGAACAUCUUAGUCAATT against USP34 | inactive: 0.0665
61 | GCUUAUUGCGGACAUCAUATT against CNGB3 | inactive: 0.226
62 | CUUAAACUCUGUGCUUGUATT against ARPC4 | inactive: -0.211
63 | GAUUAAAGACUACAUCAUUTT against SLC26A9 | inactive: 0.223
64 | AGAUCGCUGUCAAAACCCUTT against GFOD1 | inactive: 0.923
65 | GCAGGUCCGAGAUAUGAAUTT against MOBKL1B | inactive: 0.31
66 | GCAAGUAACUGAAUCCAUUTT against TACSTD2 | inactive: -0.681

Row | Sequence | median seed-adjusted z-score
67 | GGUUCACGGCUAAAGCAAUTT against DGCR8 | inactive: -0.266
68 | GGGUACAUAUGCAACAGUATT against PCTK2 | inactive: -0.497
69 | GAAAUGUGCUCACUCUGUUTT against SVOP | inactive: 0
70 | CAACAAGUUUCACACGUUCTT against CALCA | inactive: 0.0802
71 | GGAGCAGUUUGAAUGUCCATT against HR | inactive: 0.751
72 | GCAAGACCUAAGCAAACUATT against BXDC1 | inactive: 0.173
73 | AGAGGUUACUUCAAAGACATT against MED31 | inactive: -0.267
74 | GCGAAGAUUUGAGAAACGATT against VPS4B | inactive: -0.0992
75 | GGAGGAUUGGAUUUCCUGATT against CD1B | inactive: -0.407
76 | GACCGAAAAUCGCAAACCATT against DOCK11 | inactive: 0.293
77 | CAUAUUGGUUGGUCUCGAATT against MBTD1 | inactive: 0.0649
78 | CCUAUUGACCCUGCAGUUATT against SPRR1A | inactive: -0.0536
79 | GCAUCUCAGUACGAUGAAATT against DDX27 | inactive: -0.131
80 | CCUGCACUCGGGAACAGAATT against TNFRSF1B | inactive: -0.483
81 | CAUCUGAAGUCAUCACCAATT against PLA2G4F | inactive: -0.0231
82 | CAAGUACUGUAAUCACCCATT against ATF2 | inactive: 0.424
83 | GGCCUCUCACUAUCUCGUATT against POLRMT | inactive: 0.0812
84 | CCAGGAUGAUUUAGCUGAATT against SCIN | inactive: 0.509
85 | GACUAUUUUUGUAUGCGAUTT against GNPDA2 | inactive: -0.422
86 | GGCUUAUUUGCAUAUCAUATT against SSH1 | inactive: 0.209
87 | CCCAAGACGUUCACCGUGATT against NF2 | inactive: -0.543
88 | UCACAGUCACAUACAGAGATT against SNRPD3 | active: -2.69

Row | Sequence | median seed-adjusted z-score
89 | GCAGGGACCAAGAACUAUATT against TARS | inactive: 0.146
90 | GAGAGACUCUGCAAGCUAUTT against DDX17 | inactive: 0.231
91 | CAAUGACCAUUGACGGAAUTT against ELAVL2 | inactive: -0.077
92 | GGAGCUCACUGACGAGAAUTT against POLR2C | active: -2.95
93 | AACCUAUGCGUAUCCAGUATT against SNRPA | active: -2.09
94 | AGACCUAGCAUGGACCAGATT against GUCY2E | inactive: 0.61
95 | GGUUUUCGAAACUUACAUATT against PGR | inactive: -0.0249
96 | GGUUCUAUGAGGAUGAUGATT against NFKB2 | inactive: -0.132
97 | UGUGAUACCUCAAAGCACATT against NARF | inactive: -0.346
98 | CAACAUUCCAUCACUAAUATT against NXN | inactive: 0.175
99 | GGUACGUUUUUAUAUGGAATT against PTPLA | inactive: 0.291
100 | GGAUCCAUUUUGAGGAUUATT against VIPR1 | inactive: 0.168
101 | CUCGCUACAUGAUCUAUGATT against NECAB1 | inactive: 0.0268
102 | CAAACUGCAAUGUACUUGATT against PDK1 | inactive: -0.00904
103 | GGAUGAUUGUGAUUCAUUUTT against SLC16A4 | inactive: 0.341
104 | CGUUCCUAAGCUACAAGAATT against TMPRSS9 | inactive: 0.106
105 | GGACGGUAAUAACGGAAGATT against FUBP3 | inactive: 0.108
106 | GCUCUUCUCCACACCGUCATT against CRCP | inactive: 0
107 | GACUUUCUGCUGACUCAUATT against DGAT2L4 | inactive: 0.145
108 | CCAUCCGUCUUAGCAAGGATT against MYH14 | inactive: -0.307
